Amino acid sequences for entries named in this document (tags omitted). A change or cut given only in a name is not applied to a line headed by its entry.
UniProt P05067: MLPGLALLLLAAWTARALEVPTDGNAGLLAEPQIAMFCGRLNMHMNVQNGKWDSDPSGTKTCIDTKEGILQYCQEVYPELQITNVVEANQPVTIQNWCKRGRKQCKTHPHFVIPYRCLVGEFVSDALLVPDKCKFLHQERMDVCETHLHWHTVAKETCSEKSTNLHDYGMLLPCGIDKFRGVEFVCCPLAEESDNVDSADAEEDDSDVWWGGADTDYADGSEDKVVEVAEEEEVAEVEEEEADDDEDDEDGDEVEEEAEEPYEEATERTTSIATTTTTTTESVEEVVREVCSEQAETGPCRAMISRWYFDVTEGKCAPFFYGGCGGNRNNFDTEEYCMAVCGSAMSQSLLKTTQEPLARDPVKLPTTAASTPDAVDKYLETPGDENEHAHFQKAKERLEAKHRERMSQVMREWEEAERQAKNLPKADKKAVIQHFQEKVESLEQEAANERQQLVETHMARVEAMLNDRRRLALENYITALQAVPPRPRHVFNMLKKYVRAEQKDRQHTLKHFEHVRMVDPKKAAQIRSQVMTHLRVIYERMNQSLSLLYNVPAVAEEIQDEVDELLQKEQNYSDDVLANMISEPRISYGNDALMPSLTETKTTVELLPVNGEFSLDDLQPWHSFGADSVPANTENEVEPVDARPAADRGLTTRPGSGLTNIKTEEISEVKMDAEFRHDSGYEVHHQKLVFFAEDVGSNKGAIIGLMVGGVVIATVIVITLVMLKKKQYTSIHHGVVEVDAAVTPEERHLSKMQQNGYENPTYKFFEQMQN

In patent publication US20060235199A1 (priority 2003, published 2006):

Assays:
[1] = Evaluation, with ThT, of the ability of the artificial peptide used alone to form amyloid fibrils; settings: for increase in ThT fluorescent intensity with time, peptide alone: peptide 200 μM
Method: The peptide (10-4F), (10-3L), (10-3F), (10-3A), Aβ (14-23) or Aβ (10-35) synthesized in Example 1, which was contained alone in an aqueous solution, was evaluated for its ability to form amyloid fibrils. The secondary structure was examined using a CD spectrum, and the ability to form amyloid fibrils was evaluated with dye thioflavin T (ThT) binding specifically to amyloid fibrils to emit fluorescence, under a transmission electron microscope (TEM). The ability of each artificial peptide obtained in Example 1 to form amyloid fibrils when used alone was evaluated using ThT. Starting solution used: [peptide]=2 mM solution in TFE Concentration: [peptide]=200 μM in 20 mM Tris-HCl buffer (pH 7.4) Temperature: room temperature or 40° C. Concentrations: [peptide]=5 μM, [ThT]=6 μM (20 mM Tris-HCl buffer (pH 7.4)) Temperature: room temperature Stirring conditions: The whole volume of the reaction mixture was sufficiently stirred with a Pasteur pipette before sampling, and then sufficiently stirred in a cell with a Pasteur pipette. Excitation wavelength: 440 nm, detection wavelength: 482 nm. The formation of fibrils was slow at ordinary temperatures to make it difficult to monitor the change with time, so the ability of each artificial peptide used alone to form fibrils was then evaluated at an elevated temperature of 40° C. estimated to accelerate formation of fibrils.

[2] = general procedure: Fmoc solid-phase peptide synthesis; NovaSyn TGR resin; HBTU/HOBt-H2O/DIEA; settings: whole synthesis, scale 20 μmol
[3] = Observation under TEM of samples whose fluorescent intensity change was finished
[4] = samples after incubation at 40° C., (1-3) in Example 2

Row | Substance | increase in ThT fluorescent intensity with time, peptide alone ([1]; incubation at room temperature) | fibrils observed under TEM [3, 4] | other results
1 | Ac-KQKLLALLEE-NH2 [10-3A] | did not show an increase in fluorescent intensity | – | increase in ThT fluorescent intensity, peptide alone ([1]; incubation at 40° C.): hardly showed an increase in influorescent intensity
2 | Ac-KQKLLFLLEE-NH2 [10-3F] | significant increase in fluorescent intensity with time | – | fluorescent intensity in the end point, compared among peptides ([1]; peptide alone, incubation at room temperature): half or less that of 10-3L or 10-4F
3 | Ac-KQKLLLFLEE-NH2 | – | – | isolated yield [2]: 35%
4 | Ac-KQKLLLFLEE-NH2 [10-4F] | significant increase in fluorescent intensity with time | fibrils were observed | –
5 | Ac-KQKLLLLLEE-NH2 [10-3L] | significant increase in fluorescent intensity with time | fibrils were observed | –
6 | Aβ (10-35): peptide consisting of 10 to 35 residues of amyloid β peptide, used as the nucleus of amyloid fibril (YEVHHQKLVFFAEDVGSNKGAIIGLM; Amyloid-beta protein 42; UniProt P05067 681-706, looked up, fragment) [reference compound] | – | – | fibrils observed under TEM ([3]; sample after room temperature incubation, (1-2) in Example 2): fibrils were observed

Some entries repeat one wording, which the source may state once for all of them.
